Values from PubChem BioAssay AID504791 (Drosophila RNAi Screening Center, 2011)
The deposit covers about 23,000 reagents; below is an unselected part of those that have a named target and a result. Over the whole deposit, 199 (0.86%) got an active call. 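Plate-scaled ratios behind the calls are not deposited; printed light signals are raw; many rows marked increased or decreased are still called inactive.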 Not stated in the record: the direction of the score.

Purpose: 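Genes of the fly required for silencing by miRNA, siRNA or endo-siRNA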 (primary screen)
Cell system: Drosophila S2-derived reporter cells
Reagents: long dsRNA against Drosophila genes, about 150-250 ng dsRNA per well (siRNA assay); about 80-120 ng (miRNA assay)
Timing: about 5 days (siRNA assay); about 4 days (miRNA assay)
Challenge: copper sulfate induction of reporters: 25 µM (siRNA assay); 200 mM stated (miRNA assay), 1-2 days before reading
Measurement: 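Dual luciferase assay: Renilla to firefly signal ratio in each well, scaled to the mean ratio of its plate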
Call rule: 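First-pass picks had plate-scaled ratios over 1.5 for the siRNA assay, over 1.6 for the miRNA assay, or under 0.6; two distinct dsRNAs had to score alike on retest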

With Cpr47Eg (Cuticular protein 47Eg) [DRSC07330], what was measured?
stable assay Renilla, run 1 (luminescence): 6311; stable assay firefly, run 1 (luminescence): 3.57e5; outcome: inactive

What did the screen give for CG12661 [DRSC17864]?
stable assay Renilla, run 1 (luminescence): 6251; stable assay firefly, run 1 (luminescence): 3.96e5; outcome: inactive

With kz (kurz) [DRSC18786], what was measured?
stable assay Renilla, run 1 (luminescence): 6175; stable assay firefly, run 1 (luminescence): 3.68e5; outcome: inactive

With Irp-1B (Iron regulatory protein 1B) [DRSC16720], how do the results read?
stable assay Renilla, run 1 (luminescence): 6867; stable assay firefly, run 1 (luminescence): 4.20e5; outcome: inactive

How did the screen score CG14712 [DRSC14935]?
stable assay Renilla, run 1 (luminescence): 8563; stable assay firefly, run 1 (luminescence): 5.05e5; outcome: inactive

For qless [DRSC15103], how do the results read?
stable assay Renilla, run 1 (luminescence): 6270; stable assay firefly, run 1 (luminescence): 4.46e5; outcome: inactive

Which result is listed for qless [DRSC15507]?
stable assay Renilla, run 1 (luminescence): 6011; stable assay firefly, run 1 (luminescence): 5.52e5; outcome: inactive

Which result is listed for Ptp4E (Protein tyrosine phosphatase 4E) [DRSC18701]?
stable assay Renilla, run 1 (luminescence): 8384; stable assay firefly, run 1 (luminescence): 5.66e5; outcome: inactive

Which result is listed for Syx18 (Syntaxin 18) [DRSC14628]?
stable assay Renilla, run 1 (luminescence): 7486; stable assay firefly, run 1 (luminescence): 3.07e5; outcome: inactive

How did the screen score Cbl (Cbl proto-oncogene) [DRSC10764]?
stable assay Renilla, run 1 (luminescence): 6096; stable assay firefly, run 1 (luminescence): 4.42e5; outcome: inactive

With Cbl (Cbl proto-oncogene) [DRSC11111], what does the deposit list?
stable assay Renilla, run 1 (luminescence): 6491; stable assay firefly, run 1 (luminescence): 5.29e5; outcome: inactive

For Ir68b (Ionotropic receptor 68b) [DRSC10251], what was measured?
stable assay Renilla, run 1 (luminescence): 5564; stable assay firefly, run 1 (luminescence): 3.68e5; outcome: inactive

How did the screen score Nup93-1 (Nucleoporin 93kD-1) [DRSC19344]?
stable assay Renilla, run 1 (luminescence): 9022; stable assay firefly, run 1 (luminescence): 4.28e5; outcome: inactive

How did the screen score Sema5c (Semaphorin 5c) [DRSC11279]?
stable assay Renilla, run 1 (luminescence): 4726; stable assay firefly, run 1 (luminescence): 2.84e5; outcome: inactive

For Pxd (Peroxidase) [DRSC16805], how do the results read?
stable assay Renilla, run 1 (luminescence): 8186; stable assay firefly, run 1 (luminescence): 5.26e5; outcome: inactive

Which result is listed for mthl3 (methuselah-like 3) [DRSC06997]?
stable assay Renilla, run 1 (luminescence): 8520; stable assay firefly, run 1 (luminescence): 4.04e5; outcome: inactive

With Nf1 (Neurofibromin 1) [DRSC16758], what does the deposit list?
stable assay Renilla, run 1 (luminescence): 9883; stable assay firefly, run 1 (luminescence): 5.97e5; outcome: inactive

Which result is listed for Spec2 (retired record) [DRSC12258]?
stable assay Renilla, run 1 (luminescence): 7030; stable assay firefly, run 1 (luminescence): 5.46e5; outcome: inactive

For Spec2 (retired record) [DRSC22886], how do the results read?
stable assay Renilla, run 1 (luminescence): 4043; stable assay firefly, run 1 (luminescence): 3.71e5; outcome: inactive

For CG9616 [DRSC16518], what was measured?
stable assay Renilla, run 1 (luminescence): 7103; stable assay firefly, run 1 (luminescence): 6.14e5; outcome: inactive

What is on record for Obp58c (Odorant-binding protein 58c) [DRSC04166]?
stable assay Renilla, run 1 (luminescence): 6646; stable assay firefly, run 1 (luminescence): 4.28e5; outcome: inactive

For Adgf-A2 (Adenosine deaminase-related growth factor A2) [DRSC09507], what does the deposit list?
stable assay Renilla, run 1 (luminescence): 4371; stable assay firefly, run 1 (luminescence): 3.06e5; outcome: inactive

What is on record for CG33757 [DRSC05159]?
stable assay Renilla, run 1 (luminescence): 7087; stable assay firefly, run 1 (luminescence): 4.40e5; outcome: inactive

What is on record for morgue (modifier of rpr and grim, ubiquitously expressed) [DRSC00264]?
stable assay Renilla, run 1 (luminescence): 15081; stable assay firefly, run 1 (luminescence): 1.09e6; outcome: inactive

For Dus3 (Dihydrouridine synthase 3) [DRSC02059], what does the deposit list?
stable assay Renilla, run 1 (luminescence): 6140; stable assay firefly, run 1 (luminescence): 3.81e5; outcome: inactive

What is on record for psh (persephone) [DRSC19990]?
stable assay Renilla, run 1 (luminescence): 5672; stable assay firefly, run 1 (luminescence): 4.32e5; outcome: inactive

For sicily (severe impairment of CI with lengthened youth) [DRSC19704], what does the deposit list?
stable assay Renilla, run 1 (luminescence): 5036; stable assay firefly, run 1 (luminescence): 3.93e5; outcome: inactive

For Vajk3 [DRSC01883], how do the results read?
stable assay Renilla, run 1 (luminescence): 6978; stable assay firefly, run 1 (luminescence): 1.13e6; outcome: inactive

What is on record for Vajk3 [DRSC25405]?
miRNA reporter change: reporter ratio raised past the hit cutoff; outcome: inactive

Not a retest: entries from further up.
Sema5c (Semaphorin 5c) [DRSC11279] — stable assay Renilla, run 1 (luminescence) = 4726; stable assay firefly, run 1 (luminescence) = 2.84e5; outcome = inactive
Pxd (Peroxidase) [DRSC16805] — stable assay Renilla, run 1 (luminescence) = 8186; stable assay firefly, run 1 (luminescence) = 5.26e5; outcome = inactive
